{"source": "PubChem BioAssay AID1259254 (NCATS, 2017)", "assay": "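Gene knock-downs that lead to re-replication, shown by excess G2 DNA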 (primary screen)", "system": "human HCT116 colorectal cancer cells", "knock-down reagent": "single siRNA against human genes", "duration": "3 days", "measured": "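Nuclei stained with Hoechst and imaged; cell-cycle phase assigned by DNA content; G2 share scaled per plate, non-targeting siRNA 0%, GMNN siRNA 100%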", "scale": "G2 robust z-score: higher = more G2 cells, more excess DNA replication", "hit rule": "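Active siRNAs have a G2 robust z of 5 or more median absolute deviations over the median, which in these data means about 38% or higher of GMNN control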", "note": "The deposit covers about 59,000 reagents; this is a random part of them. Over the whole deposit, about 1,550 (2.6%) were called active. 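G2 share is only a proxy for re-replication; each gene was hit by three separate siRNAs, and active genes were retested.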 Reagents against one gene are numbered here. Further read-outs or replicates are left out here. Not stated in the record: the amount of reagent."}
{"gene symbol":"TAT","siRNA no.":1,"G2 robust z-score":-0.25,"Call":"inactive"}
{"gene symbol":"TAT","siRNA no.":2,"G2 robust z-score":0.781,"Call":"inactive"}
{"gene symbol":"TAT","siRNA no.":3,"G2 robust z-score":-0.481,"Call":"inactive"}
{"gene symbol":"HSD17B10","siRNA no.":1,"G2 robust z-score":-0.326,"Call":"inactive"}
{"gene symbol":"HSD17B10","siRNA no.":2,"G2 robust z-score":3.01,"Call":"inactive"}
{"gene symbol":"HSD17B10","siRNA no.":3,"G2 robust z-score":2.71,"Call":"inactive"}
{"gene symbol":"TAFA3","siRNA no.":1,"G2 robust z-score":-0.201,"Call":"inactive"}
{"gene symbol":"TAFA3","siRNA no.":2,"G2 robust z-score":1.25,"Call":"inactive"}
{"gene symbol":"TAFA3","siRNA no.":3,"G2 robust z-score":-0.63,"Call":"inactive"}
{"gene symbol":"OR10H3","siRNA no.":1,"G2 robust z-score":0.0849,"Call":"inactive"}
{"gene symbol":"OR10H3","siRNA no.":2,"G2 robust z-score":0.108,"Call":"inactive"}
{"gene symbol":"OR10H3","siRNA no.":3,"G2 robust z-score":-0.0748,"Call":"inactive"}

Individual results from above.
TAT #1, Call: inactive
OR10H3 #3, Call → inactive
TAFA3 #1, Call: inactive

More results follow.
{"gene symbol":"RB1CC1","siRNA no.":1,"G2 robust z-score":-1.26,"Call":"inactive"}
{"gene symbol":"RB1CC1","siRNA no.":2,"G2 robust z-score":-0.582,"Call":"inactive"}
{"gene symbol":"RB1CC1","siRNA no.":3,"G2 robust z-score":0.752,"Call":"inactive"}
{"gene symbol":"TMEM41B","siRNA no.":1,"G2 robust z-score":6.75,"Call":"active"}
{"gene symbol":"TMEM41B","siRNA no.":2,"G2 robust z-score":3.92,"Call":"inactive"}
{"gene symbol":"TMEM41B","siRNA no.":3,"G2 robust z-score":1.04,"Call":"inactive"}
{"gene symbol":"PLEKHG7","siRNA no.":1,"G2 robust z-score":-1,"Call":"inactive"}
{"gene symbol":"PLEKHG7","siRNA no.":2,"G2 robust z-score":-0.387,"Call":"inactive"}
{"gene symbol":"PLEKHG7","siRNA no.":3,"G2 robust z-score":2.45,"Call":"inactive"}
{"gene symbol":"PLEKHG7","siRNA no.":4,"G2 robust z-score":0.092,"Call":"inactive"}
{"gene symbol":"PLEKHG7","siRNA no.":5,"G2 robust z-score":-0.904,"Call":"inactive"}
{"gene symbol":"PLEKHG7","siRNA no.":6,"G2 robust z-score":-0.451,"Call":"inactive"}
